From PMC12579105 come the findings set out here.

Results are given in words; binding and its absence hold for the method and conditions named. Binding seen in cells or lysates may run through a third protein. Here binding means that the protein was enriched with, or labelled near, the bait; the list need not be complete. No binding means not detected with the bait. Tags and fused reporters may be left off the sequences shown.

Sequences and labels used below:
B1: Enhancer of polycomb-like protein 1 (EPL1A) (protein, UniProt Q9FX82 1-439)
chain: MSRLSFRPRPLDIHKKLPILKSFKDFEDEDNPSSITRNSQLLRISAVEVVDNEVQPPVPSKKLISEIPTPQYLVVDTYERDYSRTFNQPASYLRARGARAELGEFVEYDLDNDDDDWLYEYNKETMILSPEMLEIVIFKLEVLDHKARERAGVITPTLGLPVPVLLQPDAAGEALKYLSIKYGVFHAIYSYWKNKREIWQKPILRRLQPPPPVNDTNPYNVFRPREKAHRLHARRMQQRENNAQSFEKLRQVRRNLDQAKTILEALIKREEKKRDFMASEVSLQRIQLKYKNETELLEDSLALAGFPLSTAYRFGSSEDEFMDSDDPTTTQTCTRPSFTPHRRFTDSNLARAQAGSIKQEARRLGWLHKLNPNEPVMLFTKALVPDKLAAAGIIPPSDARSGRARFQGRMGRGGRIVFDRWNPLNQAHINCGNTLYIAP
B2: Actin-related protein 4 (protein, UniProt Q84M92 1-441)
chain: MYGGDEVSAIVVDLGSHTCKAGYAGEDAPKAVFPSVIGAVDGVEAMDVDVDSTKTNSNSEDSKTESEKEKSKRKLYVGSQAMSYRRDHMEVLSPIKDGIVSDWDLVDNIWEHAFKSCLMIDPTEHPMLLAEPPLNTQQQREKAAELMFEKYKVPALFMAKNPVLTSFATGRATSLVVDCGGGSTTISPVHDGYVLQKAVVSSPLGGEFLTDCLLKSLESKGIKIRPRYSFKRKEVRAGEFQVEDVDIPDTTESYKLFCQRMIVGDIKDSICRVPDTPYDDKSYSNIPTTSYELPDGQTLEIGADRFKVPDVMFNPSIVQTIPGMEKYAEMIPSVRGLPHMVMESINKCDVDIRRELYSSILLAGGTSSMQQLKERLEKDLIEESPHSARVKVLASGNTTERRFSVWIGGSILASLGSFQQMWFSKSEYEEHGASYIQRKCP
B3: Enhancer of polycomb-like protein 1 (EPL1B) (protein, UniProt Q8GYQ9 1-453)
chain: MSRLSFRPRPLDIHKKLPILKSFKDFEDDETPTSTTRNSQLLRIASVEVDNEVAPVPSKKPASEIPTPQFVIVDTYERDYSPTFGQPASYLRARGARSELGEFVEYDLDNEDEDWLYEFDKDKKELPPEKLEIIIFKLEVLDHKTRERAGVITPTLGSPVPVLLQFDAASDVLQVLSINYGTFQAIFNYWKEKRKRWQKPILRRLQPPPPVNDTNPYNVFRPREKVHRLHTRRMQRRENNVQSFEKLRQVRRNLGQAQSILEALIKREEKKRDVMDSEVSLQRIQLQYRHETELLEDSLAMPGFQPTTTSYKFGSSDDELMDSDDHTSTRVRTRPAVIPSSRFTNLNLNASHPGGIKQEVRRRQSQHGWLHRLDPNEPVMLFTKPLVPDKLAAAGIVPPTPDSSPGQPPSRFQGRIGRGGRIIFDRWNPLMQSHINCGNSYYIAPNHRSTNFD
B4: SWC4 (myb-like transcription factor family protein) (protein, UniProt Q8VZL6 1-441)
chain: MGGTDAKDILGLPKTPLSLTQEKKSRPQKESHRKPDGISREVYALTGGVAPLMPSIDLKRRPPADEKVAWKWLSFTNSARKDDLQLYHWVRVVNDVPPTGDYSFAKYNKSVDILKYTDEEYENHLTDSVWTKEETDQLFEFCQNFDLRFVVIADRFPVSRTVEELKDRYYSVNRALLRARAQSPADVANHPLMKEPYDITRDRERKRALSMVLSQSRHQEKKDAEILAEAKRITEMRLAARRAEEPDVSANENAGLDKADGVVPGRSVSPTSNSQLPATAVAPSTLTMADYASTLASLRMLHVYLRTYGLEQMVQAASSAVGLRTIKRVEQTLQDLGVNLKPKVPTKTVCDEHLELRKEILTLLNLQKQLQYKESEGSSHREGSYAAMPDTPKDRVFAPDPFSFGAERPIKKEQKRKGPGRQADTPSPAHKRPRKLKASDL
B5: HAM1 (Histone acetyltransferase) (enzyme, UniProt Q9FLF7 1-445)
chain: MGSSADTETAMIIATPASNHNNPATNGGDANQNHTSGAILALTNSESDASKKRRMGVLPLEVGTRVMCQWRDGKYHPVKVIERRKNYNGGHNDYEYYVHYTEFNRRLDEWIKLEQLDLDSVECALDEKVEDKVTSLKMTRHQKRKIDETHVEGHEELDAASLREHEEFTKVKNIATIELGKYEIETWYFSPFPPEYNDCVKLFFCEFCLSFMKRKEQLQRHMRKCDLKHPPGDEIYRSSTLSMFEVDGKKNKVYAQNLCYLAKLFLDHKTLYYDVDLFLFYILCECDDRGCHMVGYFSKEKHSEEAYNLACILTLPPYQRKGYGKFLIAFSYELSKKEGKVGTPERPLSDLGLVSYRGYWTRILLDILKKHKGNISIKELSDMTAIKAEDILSTLQSLELIQYRKGQHVICADPKVLDRHLKAAGRGGLDVDVSKMIWTPYKEQS
B6: YAF9A (Transcription initiation factor TFIID subunit 14b) (protein, UniProt Q9FH40 1-268)
chain: MTNSSSSKKQAQDQPETSEPTLKSLKTKMTKSDEKQKKLKDIEISVPIVYGNVAFWLGKKASEYQSHKWAVYVRGATNEDISVVVKKVVFQLHSSFNSPTRVIEEPPFEVSESGWGEFEIAMTLHFHSDVCDKPLSLYHHLKLYPEDESGPLTMKKPVVVESYDEIVFPDPSESFLARVQNHPALTFPRLPSGYNLPAPMQVEDTGKKKRGDTKDHSLGQWFMSFSEADELLQLAAARQQVQAHIAKLRRQISLLEGQNQTVKTGSDL
B7: SHORT LIFE (protein, UniProt Q9FEN9 1-228)
chain: MPKQKAPRKQLKSYKLKHINKSIQEGDAVLMRSSEPGKPSYVARVEAIETDARGSHAKVRVRWYYRPEESIGGRRQFHGAKEVFLSDHFDFQSADTIEGKCKVHSFSSYTKLDSVGNDDFFCRFEYNSTTGAFDPDRVTVFCKCEMPYNPDDLMVQCEECSEWFHPSCIGTTIEEAKKPDNFYCEECSPQQQNLHNSNSTSNNRDAKVNGKRSLEVTKSKNKHTKRPG

The experiment addresses 4xmyc-ING2 (INHIBITOR OF GROWTH 2) (Arabidopsis thaliana). Put plainly: affinity purification with mass spectrometry; 4xmyc-ING2 captured with anti-myc microbeads (1 h, 4 °C) from extracts of 12 day-old seedlings grown under LD at 22 °C; extraction buffer 20 mM TrisHCl pH 8, 150 mM NaCl, 2.5 mM EDTA, 33 mM β-mercaptoethanol, 10% glycerol, 0.5% Triton X-100; LC-MS/MS; two biological replicates, control purification from WT.
Regarding B1, the binding entry is “binds”.

With B2, the binding entry is listed as “binds”.

As for B3, the binding entry is “binds”.

With B4, the binding entry is “binds”.

As for B5, the binding result is recorded as “binds”.

For the molecule B6, the binding entry was “binds”.

On to B7, for which the binding entry is “no binding”.
